Values quoted from earlier work in patent US20010051618A1 (priority 2000, published 2001).

Columns and labels:
kainate receptor = conditions: rat; Narita et al. 1993; cited from earlier work
[1] = test system: ventromedial nucleus of hypothalamus (VMH); conditions: Yokawa et al. 1990; cited from earlier work

SMILES: NCCCC(=O)O [GABA, γ-aminobutyric acid]
- inhibition of running activity induced by kainate (kainate receptor): not inhibited
- inhibition of rat running activity caused by polymers [1]: could be inhibited
